Experimental data reported in article doi:10.1101/2021.05.10.443488.
Results are given in words; binding and its absence hold for the method and conditions named. Binding seen in cells or lysates may run through a third protein. A result given as binding can be weak or reduced; the word gives no strength. Tags and fused reporters may be left off the sequences shown.

Target: T1, HelRSv-FLAG (C-terminal FLAG-tagged HelRSv) (Streptomyces venezuelae) (UniProt F2RC64)
T1 sequence: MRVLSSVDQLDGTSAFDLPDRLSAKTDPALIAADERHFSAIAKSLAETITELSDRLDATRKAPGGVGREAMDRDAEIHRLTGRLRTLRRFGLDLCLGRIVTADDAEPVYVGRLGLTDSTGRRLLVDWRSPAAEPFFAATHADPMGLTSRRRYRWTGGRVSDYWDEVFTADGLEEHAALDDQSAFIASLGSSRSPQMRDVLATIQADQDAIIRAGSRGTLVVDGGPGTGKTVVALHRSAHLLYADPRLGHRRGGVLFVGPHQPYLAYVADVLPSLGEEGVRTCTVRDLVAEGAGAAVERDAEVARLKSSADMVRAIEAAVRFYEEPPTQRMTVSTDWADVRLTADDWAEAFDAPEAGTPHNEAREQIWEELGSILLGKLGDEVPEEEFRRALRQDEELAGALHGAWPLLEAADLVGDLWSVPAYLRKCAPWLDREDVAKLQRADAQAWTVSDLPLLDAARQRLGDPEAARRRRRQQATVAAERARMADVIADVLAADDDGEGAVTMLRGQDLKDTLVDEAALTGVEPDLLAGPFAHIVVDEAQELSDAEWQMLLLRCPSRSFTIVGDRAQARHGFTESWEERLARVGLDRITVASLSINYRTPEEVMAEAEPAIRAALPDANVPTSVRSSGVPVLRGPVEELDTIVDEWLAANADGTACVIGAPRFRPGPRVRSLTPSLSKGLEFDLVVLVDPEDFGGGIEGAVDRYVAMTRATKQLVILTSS
Assay: co-IP

RNA polymerase (RNAP) of Streptomyces venezuelae (complex)
binding: binds
